Measurements as given in PubChem BioAssay (NCATS).
Inconclusive means that the source gave no clear call. Such entries were picked first, then a sample of the others. A potency beside an inconclusive call is a rough fit, not a confirmed value. Active and inactive are the calls of the source. Calls come from the whole dose curve; as a rule, active = well fitted cell-killing curve with a large enough effect; inconclusive = small, poorly fitted or top-dose-only effect; inactive = no such curve, though single readings can be large or run the other way.

Experiment: qHTS of pediatric cancer cell lines to identify multiple opportunities for drug repurposing: Primary screen for Rh41 cells (AID 1347108)
Conditions: Rh41 rhabdomyosarcoma viability, CellTiter-Glo luminescence, 48 h; series mostly up to 46 µM
Procedure, shortened: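 Phenotypic viability qHTS, 48 h compound exposure, CellTiter-Glo luminescence read-out; multi-concentration dosing so that potency and efficacy derive directly from the primary screen's curves.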
Note: nearly all actives have a fitted effect of over 70% in size.
Potency is the fitted concentration of half-maximal effect.

Row | Structure (SMILES) | Potency
1 | NC(=O)N/N=C/c1ccc([N+](=O)[O-])o1 | inconclusive: 12.2 µM [cytotoxic, partial curve, poor fit]
2 | COc1cc(C(=S)N2CCOCC2)ccc1O | inactive
3 | CCOC(=O)N1CCN([N+]([O-])=NOc2ccc([N+](=O)[O-])cc2[N+](=O)[O-])CC1 | active: 4.18 µM
4 | CC1=C(C)C(=O)C(C(CCCCCC(=O)O)c2ccccc2)=C(C)C1=O (stereo unspecified) | inactive
5 | Cc1nc2ccccc2n1Cc1ccc(Cl)cc1 | inconclusive: 11.9 µM [cytotoxic, partial curve, poor fit]
6 | CCNC(=O)CCCC=CC[C@@H]1[C@H](C=CC(O)CCc2ccccc2)[C@@H](O)C[C@@H]1O (stereo partly specified) | inconclusive: 14.8 µM [cytotoxic, partial curve, poor fit]
7 | Cc1cc(O)c2c(c1)C(=O)c1cc(O)cc(O)c1C2=O | inconclusive: 11.8 µM [cytotoxic, partial curve]
8 | CC1(C)S[C@@H]2[C@H](NC(=O)[C@H](N)c3ccccc3)C(=O)N2[C@H]1C(=O)O | inactive

Of the compounds above, 2 contain four or more nitrogen atoms.
Row | Structure (SMILES) | Potency
1 | NC(=O)N/N=C/c1ccc([N+](=O)[O-])o1 | inconclusive: 12.2 µM [cytotoxic, partial curve, poor fit]
3 | CCOC(=O)N1CCN([N+]([O-])=NOc2ccc([N+](=O)[O-])cc2[N+](=O)[O-])CC1 | active: 4.18 µM

Experiment: qHTS of pediatric cancer cell lines to identify multiple opportunities for drug repurposing: Confirmatory screen for SK-N-MC cells (AID 1347111);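 note: cells exposed to compound for 48 h before the readout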
Conditions: SK-N-MC cell viability; series mostly up to 45.9 µM
Procedure, shortened: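 Metabolically active cells were quantified by ATP-dependent luminescence (CellTiter-Glo, 15 min at room temperature) following 48 h treatment. Cells had been plated at 500-1,000 per well and settled for 5 h beforehand.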

Row | Structure (SMILES) | Potency
9 | CC(C)C(=O)Nc1ccc([N+](=O)[O-])c(C(F)(F)F)c1 | inconclusive: 16.5 µM [cytotoxic, partial curve, poor fit]
10 | Nc1ncnc2c1ncn2[C@@H]1O[C@@H](CO)[C@H](O)[C@H]1O | inactive
11 | O=S(=O)(O)CCSSCCS(=O)(=O)O | inactive
